Laboratory results published in paper PMC12254266.
Certain results were filed several times, with different values. The other results are left out here. An entry can have further records. The records of an entry do not match, cause unknown; dose, time, organism, isomer or construct need not be as stated for each record. Values belong to the compound of their own block, whether it stands above or below them.

The chains behind the UniProt entries cited, without tags or fusion partners.
UniProt O14842, whole entry: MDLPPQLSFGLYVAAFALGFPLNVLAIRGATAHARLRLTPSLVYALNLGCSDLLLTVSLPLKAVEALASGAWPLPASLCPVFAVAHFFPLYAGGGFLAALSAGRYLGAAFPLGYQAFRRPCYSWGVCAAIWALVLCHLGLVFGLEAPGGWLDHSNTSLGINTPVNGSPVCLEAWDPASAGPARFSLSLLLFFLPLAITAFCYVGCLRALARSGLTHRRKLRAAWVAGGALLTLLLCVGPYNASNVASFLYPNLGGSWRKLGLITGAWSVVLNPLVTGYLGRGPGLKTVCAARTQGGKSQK

Experiments:
[1] = molecular target: T1, FFA1-Nluc (Homo sapiens, UniProt O14842); assay: NanoBRET binding; conditions: tested form: TFA
[2] = molecular target: Nluc-FFA1 (Homo sapiens, UniProt O14842); assay: NanoBRET binding; conditions: for Specific BRET (540/450) Ratio: Nluc-FFA1, tested form: TFA
[3] = molecular target: T1, FFA1-Nluc; assay: DISCo-BRET; assay type: binding; conditions: tested form: TFA; for Specific BRET (690/450): Sup Fig 3Ci
[4] = molecular target: T1, FFA1-Nluc; assay: Ca2+ mobilisation antagonism of FFA1 agonists; assay type: cell-based

SMILES: COc1ccc(C(=O)N(CC(C)(C)CNc2ccc([N+](=O)[O-])c3nonc23)c2cccc(C)n2)c(N2CCC(COc3cccc(C(CC(=O)O)C4CC4)c3)CC2)c1 (racemic)
Specific BRET (540/450) Ratio ([1]; [TUG-2597] 100 nM): 0.0022, 0.0194, 0.0100, 0.0027, 0.0079, 0.0078
Specific BRET (540/450) Ratio ([1]; [TUG-2597] 1000 nM): 0.0440, 0.0459, 0.0330, 0.0218, 0.0442, 0.0405
Specific BRET (540/450) Ratio ([2]; [TUG-2597] 31.6 nM): 0.0094, 0.0011, 0.0099, 0.0041, 0.0032, 0.0049
Specific BRET (540/450) Ratio ([2]; [TUG-2597] 316 nM): 0.0438, 0.0191, 0.0234, 0.0402, 0.0415, 0.0259
Specific BRET (690/450) ([3]; TUG-2591 0 nM, TUG-2597 + TUG-2193): 0.0066, 0.0093, 0.0103, 0.0068, 0.01515, 0.01805, 0.016, 0.0148
Specific BRET (690/450) ([3]; TUG-2591 0 nM, TUG-2597 alone): 0.0038, 0.004, 0.0066, 0.0023, 0.01995, 0.01355, 0.0076, 0.0085
Specific BRET (540/450) ([3]; Sup Fig 3Cii, TUG-2591 0 nM, TUG-2597 + TUG-905): 0.1401, 0.1383, 0.1336, 0.135, 0.2328, 0.2401, 0.302, 0.2913
Specific BRET (540/450) ([3]; Sup Fig 3Cii, TUG-2591 0 nM, TUG-2597 + TUG-2193): 0.01415, 0.01255, 0.0231, 0.0242, 0.0189, 0.0081, 0.04775, 0.04375
Specific BRET (540/450) ([3]; Sup Fig 3Cii, TUG-2591 0 nM, TUG-2597 alone): 0.09455, 0.08025, 0.0915, 0.0776, 0.1779, 0.1401, 0.1888, 0.1787
Specific BRET (540/450) ([3]; TUG-2597 + TUG-2193, 0 nM TUG-2591): 0.04077, 0.02337, 0.007275, 0.06017, 0.06628, 0.03918, 0.03148
Specific BRET (540/450) ([3]; TUG-2597 alone, 0 nM TUG-2591): 0.1903, 0.09917, 0.1025, 0.1812, 0.1709, 0.2288

Ca2% Response (%) ([4]; log[T360] -5, with PPTQ (concentration not given), Sup Figure 6D): 87.22%, 94.37%, 28.64%
Ca2% Response (%) ([4]; log[T360] -6, with 3.16 μM GW1100): 12.50, 76.32, 68.55, 75.60, 77.63%
Ca2% Response (%) ([4]; log[T360] -6, with PPTQ (concentration not given), Sup Figure 6D): 54.62, 35.97, 86.96, 78.41%
Ca2% Response (%) ([4]; log[T360] -8, Veh (no antagonist), Sup Figure 6F): 7.93, 10.40, 15.51, 4.01, 17.19, 3.30%
SMILES: COc1ccc(CCCC(C)(C)C)c(N2CCC(COc3cccc(C(CC(=O)O)C4CC4)c3)CC2)c1 (stereo not shown)
Ca2% Response (%) ([4]; log[T360] -6, column head 31.6 μM (antagonist not given), Sup Figure 6F): 54.99, 50.24, 30.85, 31.84, 58.11, 86.46%
Ca2% Response (%) ([4]; log[T360] -6.5, 10 μΜ (antagonist not given), Sup Figure 6F): 20.59, 14.69, 14.96, 14.43, 47.18, 63.06%
Specific BRET (540/450)% ([2]; Figure 4Cii, log[Ligand] -6, technical duplicates): 20.10, 10.18, 5.96, 18.84, 19.05, 15.45, 6.66, 7.44%

SMILES: CCCN1C(=O)c2ccccc2[C@@H](C(=O)O)[C@@H]1c1ccc(OCc2cccc(-c3ccc(OCCCS(C)(=O)=O)cc3C)c2)cc1 (relative stereo)
Ca2% Response (%) ([4]; response to log[T360] -7 in presence of TUG-2745, Sup Fig 6H): 53.43, 42.62, 36.36, 24.38, 43.00, 44.59%
